Results taken from PubChem BioAssay AID1347076 (National Center for Advancing Translational Sciences (NCATS), 2019).
The campaign covered roughly 400,000 compounds. About 13,000 (3.2%) were called active. Inconclusive means that the source gave no clear call. Such entries were picked first, then a sample of the others. Calls come from the whole dose curve; as a rule, active = well fitted cell-killing curve with a large enough effect; inconclusive = small, poorly fitted or top-dose-only effect, or effect the other way; inactive = flat fitted curve, though single readings scatter. Where the call is inconclusive, the potency comes from a doubtful curve fit.
% is set by controls: 0 for no effect and ±100 for the full control effect; potency is the fitted concentration of half-maximal effect.

Assay: qHTS assay for MDR1-selective chemotherapeutics: Primary screen using the drug-selected MDR subline cells KB-V1; note: nearly all actives have a fitted effect of over 60% in size
Details: KB-V1 MDR cells viability, CellTiter-Glo, 72 h; activity change, negative = cytotoxicity: at 46.1 µM (top of the series)
Method in brief: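 Drug-selected KB-V1 cells, grown in DMEM lacking phenol red with 10% FBS, receive compound titrations; after three days at 37 degrees C, surviving cell ATP is quantified by CellTiter-Glo luminescence and responses normalized and curve-fitted.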
In the case of `CCSc1cc(C2C(C#N)=C(N)Oc3n[nH]c(C)c32)c(C)o1` (stereo unspecified), the Potency is reported as inconclusive: 29.1 µM [cytotoxic, single point]. With `O=C1NC(=O)N(Cc2ccc(F)cc2)C(=O)/C1=C\C=C\c1ccco1` the Potency was inconclusive: 29.1 µM [cytotoxic, single point]. With `O=C(C(=O)N1CCC2(CC1)OCCO2)c1c[nH]c2ccccc12` the Potency was “inactive”. For `O=[N+]([O-])c1ccc(NCc2ccc(Cl)cc2)c2ccncc12`, the Potency was inconclusive: 32.6 µM [cytotoxic, single point]. With `COc1ccc(-n2cnc3cc(C(=O)N4CCC5(CC4)OCCO5)ccc32)cc1` the Potency was inconclusive: 5.8 µM [cytotoxic, full curve]. With `COc1ccc(CCC(=O)NCCc2cnc[nH]2)cc1` the Potency was inconclusive: 14.6 µM [rising, single point]. For `COP(=O)(OC)C(NC(=O)C(C)(C)C)=C(Cl)Cl`, the Potency was inconclusive: 18.4 µM [rising, single point]. With `Brc1ccc2c(c1)C(OC1CN3CCC1CC3)c1ccccc1CS2` (stereo unspecified) the Potency was inconclusive: 29.1 µM [cytotoxic, single point]. With `O=C(c1ccc(N2CCCCC2)c([N+](=O)[O-])c1)N1CCC2(CC1)OCCO2` the Potency was inconclusive: 18.4 µM [cytotoxic, partial curve]. With `COc1ccc(C2NCc3ccc4c(c3-n3cccc32)OCO4)cc1OC` (stereo unspecified) the Potency was inconclusive: 18.4 µM [cytotoxic, single point]. For `Cc1nn(Cc2ccccc2)c(Cl)c1C(=O)OCC(=O)N1CCCC1`, the Potency was “inactive”. With `O=C(Cc1c(-c2ccccc2)nc2ccc(Br)cn12)N1CCCC1` the Potency was inconclusive: 11.6 µM [cytotoxic, partial curve, poor fit]. In the case of `CC(NC1CCCCC1)C(O)C12CC3CC(CC(C3)C1)C2` (stereo unspecified), the Potency is reported as inconclusive: 20.6 µM [cytotoxic, single point]. With `CCOC(=O)[C@]12Cc3cc(C)ccc3[C@H]1N(C(C)C)C(=O)c1ccccc12` the Potency was “inactive”. In the case of `O=c1[nH]c2ccccc2n1C1CCN(CCCC(c2ccc(F)cc2)c2ccc(F)cc2)CC1`, the Potency is reported as active: 11.6 µM. In the case of `CN1CCc2nc(N)c(C#N)c(-c3ccccc3)c2C1`, the Potency is reported as “inactive”. In the case of `O=C1NCN(c2ccccc2)C12CCNCC2`, the Potency is reported as “inactive”. With `CCC(=Nc1ccccc1N)c1c(O)[nH]c(=O)[nH]c1=O` the Potency was inconclusive: 23.1 µM [cytotoxic, partial curve, poor fit]. In the case of `O=C(CN1CCCCC1)c1ccccc1F`, the Potency is reported as inconclusive: 13 µM [rising, partial curve, poor fit]. In the case of `CC(CO)(CO)N=Cc1c(O)n(-c2cccc3ccccc23)c(=O)[nH]c1=O`, the Potency is reported as inconclusive: 35.5 µM [rising, single point]. With `COc1ccc(CCNC2CCCCC2)cc1` the Potency was “inactive”. With `Cc1cc(=O)oc2cc3c(cc12)CCCN3` the Potency was “inactive”. With `COc1ccc2c3c1O[C@H]1C(=O)CC[C@H]4[C@@H](C2)N(C)CC[C@]314` the Potency was “inactive”. With `Cc1cccc(-n2c(O)c(C=NCCCN3CCOCC3)c(=O)[nH]c2=O)c1C` the Potency was “inactive”. In the case of `O=C1NC(=S)NC(=O)C1=Cc1ccc(Br)s1`, the Potency is reported as “inactive”. With `CC(C)(C)NC(=S)N1Cc2ccccc2-n2nncc2C1` the Potency was “inactive”. For `O=[N+]([O-])c1cccc(NP(=O)(Oc2ccccc2)Oc2ccccc2)c1`, the Potency was inconclusive: 25.9 µM [cytotoxic, single point]. For `COc1ccc(/C=C/C(=O)c2c(O)n(CCC3=CCCCC3)c(=O)[nH]c2=O)cc1`, the Potency was active: 10.3 µM. For `CNC(=O)N(C)c1ccc(C(O)(C(=O)OC)C(F)(F)F)cc1` (stereo unspecified), the activity change, negative = cytotoxicity was inconclusive: 2.32%. In the case of `COC(=O)C1=C(C)NC(=S)NC1c1ccc(N(CCCl)CCCl)cc1Cl` (stereo unspecified), the Potency is reported as inconclusive: 7.31 µM [cytotoxic, partial curve]. With `O=C(/C=C/c1ccc(Cl)cc1)NC(=S)N1C[C@H]2C[C@H](C1)c1cccc(=O)n1C2` the Potency was inconclusive: 1.64 µM [rising, single point]. In the case of `CC12C=CC(=O)C=C1CC(O)C1C2CCC2(C)C1CCC2(C)O` (stereo unspecified), the Potency is reported as “inactive”. In the case of `c1ccc(CCN2CCCCC2)cc1`, the Potency is reported as “inactive”. In the case of `NCCc1ccccc1`, the Potency is reported as “inactive”. In the case of `c1cc2c(cc1NC1=NCCO1)CCCC2`, the Potency is reported as inconclusive: 7.31 µM [cytotoxic, partial curve]. For `Cc1cccc(OP(=O)(Nc2ccc(F)cc2)Oc2cccc(C)c2)c1`, the Potency was inconclusive: 29.1 µM [cytotoxic, single point]. For `CC(C)(C)n1nnnc1C(CCc1ccccc1)N1CCC(n2c(=O)[nH]c3ccccc32)CC1` (stereo unspecified), the Potency was inconclusive: 29.1 µM [cytotoxic, single point]. With `CCCNC(=O)c1c(N)n(CC2CCCO2)c2nc3ccccc3nc12` (stereo unspecified) the Potency was inconclusive: 20.6 µM [cytotoxic, partial curve]. In the case of `COC(=O)CSC1=NN1c1cc(C)nc(N)n1`, the Potency is reported as inconclusive: 0.731 µM [cytotoxic, full curve, poor fit]. For `C[N+]1(C)C2CC[C@H]1CC(OC(=O)C(CO)c1ccccc1)C2` (stereo partly specified), the Potency was “inactive”. For `COc1cc2c(cc1OC)C(c1c(O)n(CCc3ccccc3)c(=S)[nH]c1=O)NCC2` (stereo unspecified), the Potency was inconclusive: 29.1 µM [rising, partial curve, poor fit]. With `CCCCCCC(=O)c1c(O)n(-c2ccc(OC)cc2)c(=O)[nH]c1=O` (tested in a mixture with another compound) the Potency was active: 8.2 µM. In the case of `C#CCOc1cc(C2C3=C(COC3=O)Nc3cc4c(cc32)OCO4)ccc1OC` (stereo unspecified), the Potency is reported as inconclusive: 23.1 µM [cytotoxic, single point]. For `COC(=O)C1=C(c2ccc(Cl)c(C(F)(F)F)c2)C[C@@H]2CC[C@H]1N2C(=O)NCCOc1ccc(OC)cc1`, the Potency was inconclusive: 29.1 µM [cytotoxic, single point]. For `COc1ccc2[nH]c(C)c(CCNCc3cc(OC)c(OC)c(OC)c3)c2c1`, the Potency was inconclusive: 29.1 µM [cytotoxic, single point]. With `O=[N+]([O-])[N-][n+]1cnn(Cc2ccccc2)c1` the Potency was “inactive”. For `c1cc2c(cc1[C@H]1OC[C@H]3[C@@H]1CO[C@H]3c1ccc3c(c1)OCO3)OCO2`, the Potency was “inactive”. In the case of `O=C(Nc1ccc(Cl)cc1)O/N=C(\c1ccccc1)c1ccccn1`, the Potency is reported as inconclusive: 29.1 µM [cytotoxic, single point]. With `CCCCCCC(=O)c1c(O)n(-c2ccccc2OC)c(=O)[nH]c1=O` the Potency was inconclusive: 23.1 µM [cytotoxic, single point]. With `FC(F)(F)c1ccc2c(c1)N(CCCN1CCN(CCCl)CC1)c1ccccc1S2` the Potency was inconclusive: 23.1 µM [cytotoxic, single point]. For `CC1CCCC(NC(=O)COC(=O)c2cn(C)c3ccccc23)C1C` (stereo unspecified), the Potency was “inactive”. For `Cc1cc(OC(C)C(=O)NCC2CCC(C(=O)O)CC2)c2c3c(c(=O)oc2c1)CCC3` (stereo unspecified), the Potency was inconclusive: 29.1 µM [rising, single point]. With `Cc1cc(C)cc(-n2c(/C=C/c3cccc(F)c3)nc3ccccc3c2=O)c1` the Potency was inconclusive: 20.6 µM [cytotoxic, partial curve]. For `Cc1cccc(-n2c(O)c(C=NCCN3CCNCC3)c(=O)[nH]c2=S)c1`, the Potency was inconclusive: 6.51 µM [rising, full curve, poor fit]. In the case of `CN(Cc1cccc(-c2ccncc2)c1)C(=O)Oc1ccccc1Cc1ccccc1`, the Potency is reported as inconclusive: 14.6 µM [cytotoxic, partial curve, poor fit]. For `COC(=O)C1=C(C(=O)OC)SC2(S1)C(C(=O)OC)=C(C(=O)OC)Sc1c2ssc1=O`, the Potency was inconclusive: 2.31 µM [cytotoxic, partial curve, poor fit]. With `COC(=O)C1=C(c2ccc(C(C)=O)cc2)C[C@@H]2CC[C@H]1N2C(=O)NCc1ccc(C(F)(F)F)cc1` the Potency was “inactive”. For `c1coc(CN2Cc3ccccc3-n3nncc3C2)c1`, the Potency was “inactive”. With `N#Cc1ccccc1Cn1cc(C(=O)c2cccs2)c2ccccc21` the Potency was inconclusive: 11.6 µM [cytotoxic, partial curve, poor fit]. With `CCCCCCOc1ccc(CN2CCN(CC)CC2)cc1` the Potency was inconclusive: 18.4 µM [cytotoxic, partial curve]. In the case of `Cc1nc2cc(-c3cccc(F)c3)nn2c(C)c1CCC(=O)N1CCC2(CC1)OCCO2`, the Potency is reported as inconclusive: 18.4 µM [cytotoxic, single point]. For `Cc1cccc(OCC(=O)N2CCN(Cc3ccc4c(c3)OCO4)CC2)c1`, the Potency was inconclusive: 16.4 µM [cytotoxic, partial curve, poor fit]. For `CCOC(=O)[C@]12Cc3ccc(C)cc3[C@H]1N(C1CCCCC1)C(=O)c1cc(OC)ccc12`, the Potency was active: 4.61 µM. With `CCOc1cc2c(cc1OCC)-n1cccc1C(c1c(O)cccc1OC)NC2` (stereo unspecified) the Potency was inconclusive: 20.6 µM [cytotoxic, single point]. For `CC12Cc3cnoc3C=C1CCC1C2CCC2(C)C1CCC2(C)O` (stereo unspecified), the Potency was inconclusive: 10.3 µM [cytotoxic, partial curve, poor fit]. With `Cc1ccc(OCC(=O)N2CCN(CCc3ccncc3)CC2)cc1C` the Potency was “inactive”. In the case of `Cc1[nH]c2ccc(OC(F)(F)F)cc2c1CCNCc1ccc(Cl)cc1`, the Potency is reported as inconclusive: 16.4 µM [cytotoxic, single point]. With `O=C(CNC(=O)OCc1ccccc1)Nc1ccc(Br)cc1C(=O)c1ccccc1Cl` the Potency was active: 8.2 µM. In the case of `CN1CCN(/N=C/c2c(O)n(CCC3=CCCCC3)c(=S)[nH]c2=O)CC1`, the Potency is reported as inconclusive: 18.4 µM [rising, partial curve]. With `Nc1ccnn1C1CCNCC1` the Potency was inconclusive: 29.1 µM [rising, single point]. For `Clc1ccc2sc(C3CCNCC3)nc2c1`, the Potency was “inactive”.
